Data taken from article doi:10.1101/561605.
These are yes or no findings as the source states them, for the method shown. Binding can be weak; no strength is given. Tags and fused reporters may be left off the sequences shown.

B1: JAZ4 fused to the B42 transcriptional activation domain (pB42AD:JAZ4) (protein, UniProt Q58G47 1-310)
chain: MERDFLGLGSKLSPITVKEETNEDSAPSRGMMDWSFSSKVGSGPQFLSFGTSQQETRVNTVNDHLLSSAAMDQNQRTYFSSLQEDRVFPGSSQQDQTTITVSMSEPNYINSFINHQHLGGSPIMAPPVSVFPAPTTIRSSSKPLPPQLTIFYAGSVLVYQDIAPEKAQAIMLLAGNGPHAKPVSQPKPQKLVHHSLPTTDPPTMPPSFLPSISYIVSETRSSGSNGVTGLGPTKTKASLASTRNNQTAAFSMAPTVGLPQTRKASLARFLEKRKERVINVSPYYVDNKSSIDCRTLMSECVSCPPAHHLH
B2: JAZ10 fused to the B42 transcriptional activation domain (pB42AD:JAZ10) (protein, UniProt Q93ZM9 1-197)
chain: MSKATIELDFLGLEKKQTNNAPKPKFQKFLDRRRSFRDIQGAISKIDPEIIKSLLASTGNNSDSSAKSRSVPSTPREDQPQIPISPVHASLARSSTELVSGTVPMTIFYNGSVSVFQVSRNKAGEIMKVANEAASKKDESSMETDLSVILPTTLRPKLFGQNLEGDLPIARRKSLQRFLEKRKERLVSTSPYYPTSA
B3: Coronatine-insensitive 1 (COI1) in pB42AD (pB42AD:COI1) (protein, UniProt O04197 1-592)
chain: MEDPDIKRCKLSCVATVDDVIEQVMTYITDPKDRDSASLVCRRWFKIDSETREHVTMALCYTATPDRLSRRFPNLRSLKLKGKPRAAMFNLIPENWGGYVTPWVTEISNNLRQLKSVHFRRMIVSDLDLDRLAKARADDLETLKLDKCSGFTTDGLLSIVTHCRKIKTLLMEESSFSEKDGKWLHELAQHNTSLEVLNFYMTEFAKISPKDLETIARNCRSLVSVKVGDFEILELVGFFKAAANLEEFCGGSLNEDIGMPEKYMNLVFPRKLCRLGLSYMGPNEMPILFPFAAQIRKLDLLYALLETEDHCTLIQKCPNLEVLETRNVIGDRGLEVLAQYCKQLKRLRIERGADEQGMEDEEGLVSQRGLIALAQGCQELEYMAVYVSDITNESLESIGTYLKNLCDFRLVLLDREERITDLPLDNGVRSLLIGCKKLRRFAFYLRQGGLTDLGLSYIGQYSPNVRWMLLGYVGESDEGLMEFSRGCPNLQKLEMRGCCFSERAIAAAVTKLPSLRYLWVQGYRASMTGQDLMQMARPYWNIELIPSRRVPEVNQQGEIREMEHPAHILAYYSLAGQRTDCPTTVRVLKEPI
B4: JAZ9 fused to the B42 transcriptional activation domain (pB42AD:JAZ9) (protein, UniProt Q8W4J8 1-267)
chain: MERDFLGLSDKQYLSNNVKHEVNDDAVEERGLSTKAAREWGKSKVFATSSFMPSSDFQEAKAFPGAYQWGSVSAANVFRRCQFGGAFQNATPLLLGGSVPLPTHPSLVPRVASSGSSPQLTIFYGGTISVFNDISPDKAQAIMLCAGNGLKGETGDSKPVREAERMYGKQIHNTAATSSSSATHTDNFSRCRDTPVAATNAMSMIESFNAAPRNMIPSVPQARKASLARFLEKRKERLMSAMPYKKMLLDLSTGESSGMNYSSTSPT

target: HaRxL10 fused to the LexA DNA binding domain (pGilda:HaRxL10) (Hyaloperonospora arabidopsidis); test: two-hybrid

Row | binding | Binder
1 | binds | B1
2 | no binding | B2
3 | no binding | B3
4 | binds | B4
